Nine molecules from article PMC8074078 can be followed below.

Amino acid sequences for entries named in this document (tags omitted). A change or cut given only in a name is not applied to a line headed by its entry. Chains listed by the source or under a name are the forms on record and can include a tag or linker.
His6-GST-PACRG (Q96M98, form named): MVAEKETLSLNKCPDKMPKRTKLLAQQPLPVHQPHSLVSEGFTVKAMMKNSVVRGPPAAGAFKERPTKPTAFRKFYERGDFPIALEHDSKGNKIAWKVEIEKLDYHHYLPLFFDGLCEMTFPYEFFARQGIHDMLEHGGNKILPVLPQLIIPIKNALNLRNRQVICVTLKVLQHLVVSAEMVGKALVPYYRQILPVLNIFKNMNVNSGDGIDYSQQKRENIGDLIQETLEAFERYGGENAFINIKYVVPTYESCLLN

No constants are given. Whether binding was seen depends on the method and setting. Binding seen in cells or lysates may run through a third protein. A yes stands for co-enrichment or nearness to the bait. Other partners may have been found.

B1: TRIP4 (protein, UniProt Q15650 1-581)
chain: MAVAGAVSGEPLVHWCTQQLRKTFGLDVSEEIIQYVLSIESAEEIREYVTDLLQGNEGKKGQFIEELITKWQKNDQELISDPLQQCFKKDEILDGQKSGDHLKRGRKKGRNRQEVPAFTEPDTTAEVKTPFDLAKAQENSNSVKKKTKFVNLYTREGQDRLAVLLPGRHPCDCLGQKHKLINNCLICGRIVCEQEGSGPCLFCGTLVCTHEEQDILQRDSNKSQKLLKKLMSGVENSGKVDISTKDLLPHQELRIKSGLEKAIKHKDKLLEFDRTSIRRTQVIDDESDYFASDSNQWLSKLERETLQKREEELRELRHASRLSKKVTIDFAGRKILEEENSLAEYHSRLDETIQAIANGTLNQPLTKLDRSSEEPLGVLVNPNMYQSPPQWVDHTGAASQKKAFRSSGFGLEFNSFQHQLRIQDQEFQEGFDGGWCLSVHQPWASLLVRGIKRVEGRSWYTPHRGRLWIAATAKKPSPQEVSELQATYRLLRGKDVEFPNDYPSGCLLGCVDLIDCLSQKQFKEQFPDISQESDSPFVFICKNPQEMVVKFPIKGNPKIWKLDSKIHQGAKKGLMKQNKAV
B2: SEPT9 (protein, UniProt Q9UHD8 1-586)
chain: MKKSYSGGTRTSSGRLRRLGDSSGPALKRSFEVEEVETPNSTPPRRVQTPLLRATVASSTQKFQDLGVKNSEPSARHVDSLSQRSPKASLRRVELSGPKAAEPVSRRTELSIDISSKQVENAGAIGPSRFGLKRAEVLGHKTPEPAPRRTEITIVKPQESAHRRMEPPASKVPEVPTAPATDAAPKRVEIQMPKPAEAPTAPSPAQTLENSEPAPVSQLQSRLEPKPQPPVAEATPRSQEATEAAPSCVGDMADTPRDAGLKQAPASRNEKAPVDFGYVGIDSILEQMRRKAMKQGFEFNIMVVGQSGLGKSTLINTLFKSKISRKSVQPTSEERIPKTIEIKSITHDIEEKGVRMKLTVIDTPGFGDHINNENCWQPIMKFINDQYEKYLQEEVNINRKKRIPDTRVHCCLYFIPATGHSLRPLDIEFMKRLSKVVNIVPVIAKADTLTLEERVHFKQRITADLLSNGIDVYPQKEFDEDSEDRLVNEKFREMIPFAVVGSDHEYQVNGKRILGRKTKWGTIEVENTTHCEFAYLRDLLIRTHMQNIKDITSSIHFEAYRVKRLNEGSSAMANGMEEKEPEAPEM
B3: RNPS1 (protein, UniProt Q15287 1-305)
chain: MDLSGVKKKSLLGVKENNKKSSTRAPSPTKRKDRSDEKSKDRSKDKGATKESSEKDRGRDKTRKRRSASSGSSSTRSRSSSTSSSGSSTSTGSSSGSSSSSASSRSGSSSTSRSSSSSSSSGSPSPSRRRHDNRRRSRSKSKPPKRDEKERKRRSPSPKPTKVHIGRLTRNVTKDHIMEIFSTYGKIKMIDMPVERMHPHLSKGYAYVEFENPDEAEKALKHMDGGQIDGQEITATAVLAPWPRPPPRRFSPPRRMLPPPPMWRRSPPRMRRRSRSPRRRSPVRRRSRSPGRRRHRSRSSSNSSR
B4: CCDC6 (protein, UniProt Q16204 1-474)
chain: MADSASESDTDGAGGNSSSSAAMQSSCSSTSGGGGGGGGGGGGGKSGGIVISPFRLEELTNRLASLQQENKVLKIELETYKLKCKALQEENRDLRKASVTIQARAEQEEEFISNTLFKKIQALQKEKETLAVNYEKEEEFLTNELSRKLMQLQHEKAELEQHLEQEQEFQVNKLMKKIKKLENDTISKQLTLEQLRREKIDLENTLEQEQEALVNRLWKRMDKLEAEKRILQEKLDQPVSAPPSPRDISMEIDSPENMMRHIRFLKNEVERLKKQLRAAQLQHSEKMAQYLEEERHMREENLRLQRKLQREMERREALCRQLSESESSLEMDDERYFNEMSAQGLRPRTVSSPIPYTPSPSSSRPISPGLSYASHTVGFTPPTSLTRAGMSYYNSPGLHVQHMGTSHGITRPSPRRSNSPDKFKRPTPPPSPNTQTPVQPPPPPPPPPMQPTVPSAATSQPTPSQHSAHPSSQP
B5: ABCD3 (protein, UniProt P28288 1-659)
chain: MAAFSKYLTARNSSLAGAAFLLLCLLHKRRRALGLHGKKSGKPPLQNNEKEGKKERAVVDKVFFSRLIQILKIMVPRTFCKETGYLVLIAVMLVSRTYCDVWMIQNGTLIESGIIGRSRKDFKRYLLNFIAAMPLISLVNNFLKYGLNELKLCFRVRLTKYLYEEYLQAFTYYKMGNLDNRIANPDQLLTQDVEKFCNSVVDLYSNLSKPFLDIVLYIFKLTSAIGAQGPASMMAYLVVSGLFLTRLRRPIGKMTITEQKYEGEYRYVNSRLITNSEEIAFYNGNKREKQTVHSVFRKLVEHLHNFILFRFSMGFIDSIIAKYLATVVGYLVVSRPFLDLSHPRHLKSTHSELLEDYYQSGRMLLRMSQALGRIVLAGREMTRLAGFTARITELMQVLKDLNHGKYERTMVSQQEKGIEGVQVIPLIPGAGEIIIADNIIKFDHVPLATPNGDVLIRDLNFEVRSGANVLICGPNGCGKSSLFRVLGELWPLFGGRLTKPERGKLFYVPQRPYMTLGTLRDQVIYPDGREDQKRKGISDLVLKEYLDNVQLGHILEREGGWDSVQDWMDVLSGGEKQRMAMARLFYHKPQFAILDECTSAVSVDVEGYIYSHCRKVGITLFTVSHRKSLWKHHEYYLHMDGRGNYEFKQITEDTVEFGS
B6: MID1 (protein, UniProt O15344 1-667)
chain: METLESELTCPICLELFEDPLLLPCAHSLCFNCAHRILVSHCATNESVESITAFQCPTCRHVITLSQRGLDGLKRNVTLQNIIDRFQKASVSGPNSPSETRRERAFDANTMTSAEKVLCQFCDQDPAQDAVKTCVTCEVSYCDECLKATHPNKKPFTGHRLIEPIPDSHIRGLMCLEHEDEKVNMYCVTDDQLICALCKLVGRHRDHQVAALSERYDKLKQNLESNLTNLIKRNTELETLLAKLIQTCQHVEVNASRQEAKLTEECDLLIEIIQQRRQIIGTKIKEGKVMRLRKLAQQIANCKQCIERSASLISQAEHSLKENDHARFLQTAKNITERVSMATASSQVLIPEINLNDTFDTFALDFSREKKLLECLDYLTAPNPPTIREELCTASYDTITVHWTSDDEFSVVSYELQYTIFTGQANVVSLCNSADSWMIVPNIKQNHYTVHGLQSGTKYIFMVKAINQAGSRSSEPGKLKTNSQPFKLDPKSAHRKLKVSHDNLTVERDESSSKKSHTPERFTSQGSYGVAGNVFIDSGRHYWEVVISGSTWYAIGLAYKSAPKHEWIGKNSASWALCRCNNNWVVRHNSKEIPIEPAPHLRRVGILLDYDNGSIAFYDALNSIHLYTFDVAFAQPVCPTFTVWNKCLTIITGLPIPDHLDCTEQLP
B7: SF1 (protein, UniProt Q15637 1-639)
chain: MATGANATPLDFPSKKRKRSRWNQDTMEQKTVIPGMPTVIPPGLTREQERAYIVQLQIEDLTRKLRTGDLGIPPNPEDRSPSPEPIYNSEGKRLNTREFRTRKKLEEERHNLITEMVALNPDFKPPADYKPPATRVSDKVMIPQDEYPEINFVGLLIGPRGNTLKNIEKECNAKIMIRGKGSVKEGKVGRKDGQMLPGEDEPLHALVTANTMENVKKAVEQIRNILKQGIETPEDQNDLRKMQLRELARLNGTLREDDNRILRPWQSSETRSITNTTVCTKCGGAGHIASDCKFQRPGDPQSAQDKARMDKEYLSLMAELGEAPVPASVGSTSGPATTPLASAPRPAAPANNPPPPSLMSTTQSRPPWMNSGPSESRPYHGMHGGGPGGPGGGPHSFPHPLPSLTGGHGGHPMQHNPNGPPPPWMQPPPPPMNQGPHPPGHHGPPPMDQYLGSTPVGSGVYRLHQGKGMMPPPPMGMMPPPPPPPSGQPPPPPSGPLPPWQQQQQQPPPPPPPSSSMASSTPLPWQQNTTTTTTSAGTGSIPPWQQQQAAAAASPGAPQMQGNPTMVPLPPGVQPPLPPGAPPPPPPPPPGSAGMMYAPPPPPPPPMDPSNFVTMMGMGVAGMPPFGMPPAPPPPPPQN
B8: SNW1 (protein, UniProt Q13573 1-536)
chain: MALTSFLPAPTQLSQDQLEAEEKARSQRSRQTSLVSSRREPPPYGYRKGWIPRLLEDFGDGGAFPEIHVAQYPLDMGRKKKMSNALAIQVDSEGKIKYDAIARQGQSKDKVIYSKYTDLVPKEVMNADDPDLQRPDEEAIKEITEKTRVALEKSVSQKVAAAMPVRAADKLAPAQYIRYTPSQQGVAFNSGAKQRVIRMVEMQKDPMEPPRFKINKKIPRGPPSPPAPVMHSPSRKMTVKEQQEWKIPPCISNWKNAKGYTIPLDKRLAADGRGLQTVHINENFAKLAEALYIADRKAREAVEMRAQVERKMAQKEKEKHEEKLREMAQKARERRAGIKTHVEKEDGEARERDEIRHDRRKERQHDRNLSRAAPDKRSKLQRNENRDISEVIALGVPNPRTSNEVQYDQRLFNQSKGMDSGFAGGEDEIYNVYDQAWRGGKDMAQSIYRPSKNLDKDMYGDDLEARIKTNRFVPDKEFSGSDRRQRGREGPVQFEEDPFGLDKFLEEAKQHGGSKRPSDSSRPKEHEHEGKKRRKE
B9: CSTF2 (protein, UniProt P33240 1-577)
chain: MAGLTVRDPAVDRSLRSVFVGNIPYEATEEQLKDIFSEVGPVVSFRLVYDRETGKPKGYGFCEYQDQETALSAMRNLNGREFSGRALRVDNAASEKNKEELKSLGTGAPVIESPYGETISPEDAPESISKAVASLPPEQMFELMKQMKLCVQNSPQEARNMLLQNPQLAYALLQAQVVMRIVDPEIALKILHRQTNIPTLIAGNPQPVHGAGPGSGSNVSMNQQNPQAPQAQSLGGMHVNGAPPLMQASMQGGVPAPGQMPAAVTGPGPGSLAPGGGMQAQVGMPGSGPVSMERGQVPMQDPRAAMQRGSLPANVPTPRGLLGDAPNDPRGGTLLSVTGEVEPRGYLGPPHQGPPMHHVPGHESRGPPPHELRGGPLPEPRPLMAEPRGPMLDQRGPPLDGRGGRDPRGIDARGMEARAMEARGLDARGLEARAMEARAMEARAMEARAMEARAMEVRGMEARGMDTRGPVPGPRGPIPSGMQGPSPINMGAVVPQGSRQVPVMQGTGMQGASIQGGSQPGGFSPGQNQVTPQDHEKAALIMQVLQLTADQIAMLPPEQRQSILILKEQIQKSTGAP

For one assay, the target named is His6-PACRG (Parkin co-regulated gene) (human) (UniProt Q96M98). Nature of the assay: affinity purification with mass spectrometry; purified His6-tagged bait coupled to Ni2+-charged resin (2 h, 4 °C), incubated 2 h with supernatant of HEK293T cell lysate, washed three times with 5 mM imidazole; bound proteins identified by LC-MS/MS; controls: Ni2+-charged resin alone (for His6-PACRG) and His6-GST (for His6-GST-PACRG); only proteins found with both baits accepted; only the target purified.
Take B1: the binding result was “binds”.

With B2, the binding entry is on record as “binds”.

With B3, the binding result is reported as “binds”.

As to B4, the binding entry is reported as “binds”.

On to B5, for which the binding result is “binds”.

With B6, the binding entry is reported as “binds”.

As to B7, the binding result is given as “binds”.

Regarding B8, the binding entry is “binds”.

For the molecule B9, the binding result was “binds”.

The next assay concerns the target His6-GST-PACRG (human) (UniProt Q96M98). Described as above.
For the molecule B1, the binding result is given as “binds”.

As to B2, the binding entry is recorded as “binds”.

On to B3, for which the binding result is “binds”.

As for B4, the binding result is on record as “binds”.

For B5, the binding result is “binds”.

With B6, the binding result was “binds”.

For the molecule B7, the binding result is on record as “binds”.

For B8, the binding entry is recorded as “binds”.

On to B9, for which the binding entry was “binds”.
